Source: US20260274794A1, “COMPOUNDS, COMPOSITIONS, AND METHOD OF INHIBITING TAU PROTEIN AND ALPHASYNUCLEIN AGGREGATION” (Purdue Research Foundation, priority 2023, published 2026)
Entries after “also recorded” stand apart in the source; their conditions may differ. For some assays here: The name of at least one read-out is uncertain. For some assays here: At least one structure is not confirmed: it was looked up by name or label, or the drawing left a doubt.

Columns and labels:
α-synuclein (α-syn) [1] = biological target: T1, α-synuclein (α-syn) (Homo sapiens, UniProt P37840); assay: Thioflavin T (ThT) fluorescence assay of α-syn fibril formation; format: biochemical; conditions: compound 100 μM; ThT fluorescence intensity at plateau phase, control = 100%
T1 construct: purchased rPeptide, LLC (Watkinsville, GA)
Experimental: (§1) ThT fluorescence is routinely established assay to follow the kinetics of α-syn fibril formation with different drug candidate treatments. Compounds were first tested at a final of concentration of 100 μM and α-syn and 2N4R tau were prepared at 2 μM and 6 μM, respectively. Compounds with highest anti-fibrillary activity were tested at 3.125, 6.25, 12.5, 25, 50, and 100 μM to obtain dose-response curves.
For the α-syn ThT assay, ThT was used at a final concentration of 20 μM. α-Syn was dissolved in 20 mM Tris-HCl (pH 7.4) supplemented with 100 mM NaCl to a stock solution of 280 μM (1 mg/250 μL) prior to resuspension in ThT buffer to obtain a final concentration of 2 μM. Compounds and ThT were first added to the wells. […] The background fluorescence signal consisted of ThT in buffer and 0.25% DMSO without α-syn. The excitation and emission wavelengths were set at 440 and 485 nm, respectively, with a Synergy HT multi-mode microplate reader (BioTek, Winooski, VT). Measurements were taken at 37° C. every 20 minutes over 50 hours of shaking prior to reading the plate. Samples were measured in three replicates and the experiments were repeated three times using different α-syn stock solutions. For each time point, the background fluorescence signal was subtracted. Arbitrary units of fluorescence were calculated from the mean values normalized against the maximum value in each completed assay. […]

α-syn [2] = biological target: T2, α-syn (Homo sapiens, UniProt P37840); assay: Transmission electron microscopy of α-syn fibrils; format: biochemical; conditions: 60 μM α-syn: 600 μM compound, 24-hours exposure
Experimental: (§2) For the examination of ultrastructural changes, 60 μM of proteins (α-syn and tau isoform 2N4R) in contact with DMSO or 600 μM of compound were incubated in a 10 mM PBS buffer (pH 7.4) for 24 h at 37° C. (molar ratio 1:10). Samples at the end of tau ThT kinetics of fibril formation were also analyzed at similar molar ratio with 6 time less concentrated samples. For the preparation of grids prior examination, a volume of 10 μL if each sample was applied on a 400-mesh Formvar-carbon-coated copper grid (Electron Microscopy Sciences, Hatfield, PA). The grids were incubated for 1 minute with the sample and after washed three times with distilled water, After being air-dried, a fresh solution of 1% uranyl acetate was applied for 1 minute. Solution was absorbed with filter paper and grids were air-dried. Evaluation of grids were performed using a transmission microscope (JEOL 1400 Flash, Japan). […]
(§3) To confirm that the reduction of ThT fluorescence observed with compounds 2, 8, and 17 was due to the reduction in protein fibrillization rather than interference with ThT [31], transmission electron microscopy (TEM) of α-syn and tau isoform 2N4R with these same compounds was utilized to visualize direct changes in α-syn and tau isoform 2N4R fibril morphology after 24-hours exposure (FIG. 5). […]

α-syn [3] = biological target: T2, α-syn; assay: Western blot (anti-oligo A11, anti-α-syn) of uncross-linked α-syn; format: biochemical; conditions: compound 600 μM, α-syn 60 μM, 37° C., 24 hours
Experimental: To validate the PICUP results, the uncross linked α-syn (produced in Dr. Rochet lab) was incubated at a final concentration of 60 μM in 10 mM phosphate buffer (pH 7.4) with the presence of vehicle (1.5% DMSO), the amide compounds of interest (Compounds 2, 8, 17), and the weak anti-fibrillization inhibitor (compound 13). Compounds were tested at a final concentration of 600 μM (molar ratio 1:10). Samples were incubated for 24 h and 48 h with constant shaking 300 rpm at 37° C. (VWR Thermal Shake Touch, Troemner, LLC, Thorofare, NJ). After completion of the incubation time, samples were mixed with one third volume of above-mentioned loading buffer and separated by electrophoresis in a 16% SDS-Page gel. […] Nitrocellulose membranes were exposed to the monoclonal antibodies diluted at 1/1000 using a 5% non-fat dried milk with TBS and 0.1% Tween-20 (TBS-T) for 12 h at 4° C. […]
One limitation of the PICUP is the generation of free radicals which can be quenched by aromatic compounds resulting in false positives. […] Western blots using polyclonal anti-oligo A11 and monoclonal anti-α-syn were assessed to detect the high molecular weight oligomers and monomeric α-syn, respectively.

α-synuclein (α-syn) [4] = biological target: T1, α-synuclein (α-syn); assay: Thioflavin T (ThT) fluorescence assay of α-syn fibril formation; format: biochemical; conditions: compound 3.125-100 μM, α-syn 2 μM, plateau phase
tau isoform 2N4R [5] = biological target: T3, tau isoform 2N4R (Homo sapiens, UniProt P10636); assay: ThT fluorescence assay of tau isoform 2N4R fibril formation; format: biochemical; conditions: compound 3.125-100 μM, tau 6 μM, plateau phase
T3 construct: made in house; host or cells: E. coli BL21 (DE3), vector pRK172
Experimental: as §1
Concerning the non-phosphorylated tau (isoform 2N4R) kinetics of fibril formation, ThT was performed with the tau protein solution was diluted to a final concentration of 6 μM in PBS (pH 7.4) supplemented with 1.5 μM heparin, 20 μM ThT, 2.5 mM DTT, and 100 μM compound. Aliquots of the diluted protein solution (100 μL each) were pipetted into the wells of a 96-well plate, and a Teflon ball was added to each well. The plate was incubated at 37° C. with constant shaking at 1,000 rpm in a Tecan Stark plate reader. ThT fluorescence was measured every 15 min with excitation and emission wavelengths of 440 nm and 480 nm, and the data were plotted using GraphPad Prism.
Various structural analogs were first tested at a final concentration of 100 μM in the presence of tau 2N4R at 6 μM. Compounds 2, 4-8, and 17 were pre-selected with α-syn ThT assay prior to evaluation on the tau isoform 2N4R.

α-syn [6] = biological target: T2, α-syn; assay: PICUP assay of α-syn oligomerization; format: biochemical; set-up: purchased rPeptide, LLC (Watkinsville, GA)
Experimental: (§4) To force the oligomerization by cross-linking, α-syn (from Rpeptide, LLC) and tau isoform 2N4R were diluted in 10 mM phosphate buffer (pH 7.4) to reach a final concentration of 10 μM [27]. Different compounds were added to the protein solution at a final concentration of 50 μM, resulting in a molar ratio of 1:5. To confirm the gradual effect of the compounds on the inhibition of α-syn oligomerization, compounds were tested at final concentration of 3.125, 6.25, 12.5, 25, and 50 μM. The controls consisted of samples without light exposition, without Ru(bpy), and without compound (i.e., 0.125% DMSO). The cross-linking reaction was initiated by the addition of 2 μL of Ru(bpy) (300 μM final concentration) and 2 μL ammonium persulfate (6 mM final concentration). Samples were irradiated immediately. Light exposition was of 1 second duration for ca-syn and 3 second duration for tau isoform 2N4R, with a 53 W (120 V) incandescent lamp installed in a homemade dark-box. Each tube contained a final volume of 20 μL. After irradiation, 8.3 μL. of Lammeli loading buffer containing 15% β-mercaptoethanol was immediately added to the solution, followed by incubation at 95° C. for 10 minutes. The cross-linked samples were separated on a 16% SDS-Page gel and visualized by Coomassie blue staining. […]

tau isoform 2N4R [7] = biological target: T3, tau isoform 2N4R; assay: Transmission electron microscopy of tau isoform 2N4R fibrils; format: biochemical; conditions: compound 100 μM, 50-hours exposure; reproduced at higher concentrations, molar ratio 1:10
Experimental: as §2, §3

[8] = test system: M17D-TR/αS-3K::YFP neuroblastoma cells; assay: α-Syn inclusion assay in dox-inducible neuroblastoma cells; format: cell-based; conditions: lower concentrations (below 40 μM)
Experimental: Dox-inducible neuroblastoma cells M17D-TR/αS-3K::YFP were used according to the published experimental procedure. For this cell-based assay, the cellular density consisted of 30,000 cells per well in a 96-well plate format. After 24 h of seeding the plates, compounds were introduced at ranging concentrations of 5 to 40 μM for a period of 24 h. After, the induction of the αS-3K::YFP transgene expression was initiated by adding dox (1 ug per mL, final concentration in culture media). Cells were incubated in the Incucyte Zoom 2000 platform (Essen Biosciences), where the acquisition of images (green, bright field) occurred continuously. After 48 hours of induction, inclusion formation and cell growth were assessed. To determine the level of different proteins by western blotting, α-syn monoclonal antibody 41312 (Thermofisher, Waltham, MA; 1:1000) and GAPDH polyclonal antibody (Sigma-Aldrich, St. Louis, MO, G9545; 1:5000) were used.
To evaluate the effects of compounds on inclusion formation and cell survival, M17D neuroblastoma cells that express an α-syn-derived αS-3K::YFP fusion protein in a doxycycline-inducible fashion were used. The cells were treated with 0.1% DMSO (control) and compounds 13, 2, 8, and 17 at various concentrations at t=24 hrs. Cells were induced with dox at t=48 hours. Punctate YFP signals were measured and normalized to 0.1% DMSO at t=96 hours. […]

tau isoform 2N4R [9] = biological target: T3, tau isoform 2N4R; assay: PICUP assay of tau isoform 2N4R oligomerization; format: biochemical; conditions: compound 50 μM
Experimental: as §4

| Structure (SMILES) | α-Syn ThT% (α-synuclein (α-syn) [1]) [%] | α-syn fibril morphology (TEM) (α-syn [2]) | oligomeric species bands of uncross-linked α-syn (Western blot) (α-syn [3]) | α-syn fibrillization, ThT dose-response (α-synuclein (α-syn) [4]) | tau isoform 2N4R fibrillization, ThT dose-response (tau isoform 2N4R [5]) | α-syn oligomerization (PICUP crosslinking) (α-syn [6]; compound 50 μM) | α-syn oligomer formation, PICUP dose-response (α-syn [6]; compound 3.125-50 μM) | tau isoform 2N4R fibril morphology (TEM) (tau isoform 2N4R [7]) | reduction of inclusions [8] | tau isoform 2N4R oligomerization (PICUP crosslinking) (tau isoform 2N4R [9]) |
| --- | --- | --- | --- | --- | --- | --- | --- | --- | --- | --- |
| O=C(Nc1cccc2[nH]ccc12)c1cccs1 [Compound 1] | 63.5 ± 23.6 | – | – | – | – | – | – | – | – | – |
| COc1cccc(C(=O)Nc2cccc3[nH]ccc23)c1 [Compound 3] | 42.8 ± 11.6 | – | – | – | – | – | – | – | – | – |
| Nc1cccc(C(=O)Nc2ccc3[nH]ccc3c2)c1 [Compound 17, 3-amino-(1H-indol-5-yl)benzamide] | – | clear effect in reducing α-syn fibrillization | did not reduce the intensity of the bands | reduction in protein fibrillization when subjected to higher concentrations | reduction in protein fibrillization when subjected to higher concentrations | effectively prevented this crosslinking | prevented α-syn oligomer formation in a dose-dependent manner | Long fibrils were observed | None of these compounds exhibited a significant reduction of inclusions | effectively prevented this crosslinking; also recorded: prevented tau 2N4R oligomer formation |
